Test results as given in ChEMBL document CHEMBL4316593 (Eur J Med Chem, 2019).
This continues a long series; more values of the same kind are listed elsewhere.

Assays:
Type in all cases: cell-based
Details in all cases: U-87MG ATCC
[1] = Inhibition of RTK/PI3K/AKT/mTOR signaling in human U87 cells assessed as up regulation of hematopoietic SH2 domain containing gene expression at cytotoxic IC50 measured after 48 hrs relative to control
[2] = Inhibition of RTK/PI3K/AKT/mTOR signaling in human U87 cells assessed as up regulation of transducin beta like 1 X-linked receptor 1 gene expression at cytotoxic IC50 measured after 48 hrs relative to control
[3] = Inhibition of RTK/PI3K/AKT/mTOR signaling in human U87 cells assessed as down regulation of TJP1 gene expression at cytotoxic IC50 measured after 48 hrs relative to control
[4] = Inhibition of RTK/PI3K/AKT/mTOR signaling in human U87 cells assessed as down regulation of CCSER2 gene expression at cytotoxic IC50 measured after 48 hrs relative to control
[5] = Inhibition of RTK/PI3K/AKT/mTOR signaling in human U87 cells assessed as down regulation of MAPRE1 gene expression at cytotoxic IC50 measured after 48 hrs relative to control
[6] = Inhibition of RTK/PI3K/AKT/mTOR signaling in human U87 cells assessed as down regulation of RAD54L2 gene expression at cytotoxic IC50 measured after 48 hrs relative to control
[7] = Inhibition of RTK/PI3K/AKT/mTOR signaling in human U87 cells assessed as up regulation of cyclin dependent kinase 10 gene expression at cytotoxic IC50 measured after 48 hrs relative to control
[8] = Inhibition of RTK/PI3K/AKT/mTOR signaling in human U87 cells assessed as up regulation of Ras association domain family member 5 gene expression at cytotoxic IC50 measured after 48 hrs relative to control
[9] = Inhibition of RTK/PI3K/AKT/mTOR signaling in human U87 cells assessed as up regulation of ring finger protein 145 gene expression at cytotoxic IC50 measured after 48 hrs relative to control
[10] = Inhibition of RTK/PI3K/AKT/mTOR signaling in human U87 cells assessed as down regulation of MBD4 gene expression at cytotoxic IC50 measured after 48 hrs relative to control
[11] = Inhibition of RTK/PI3K/AKT/mTOR signaling in human U87 cells assessed as up regulation of 1-acylglycerol-3-phosphate O-acyltransferase 1 gene expression at cytotoxic IC50 measured after 48 hrs relative to control
[12] = Inhibition of RTK/PI3K/AKT/mTOR signaling in human U87 cells assessed as down regulation of BLZF1 gene expression at cytotoxic IC50 measured after 48 hrs relative to control
[13] = Inhibition of RTK/PI3K/AKT/mTOR signaling in human U87 cells assessed as up regulation of C1orf43 gene expression at cytotoxic IC50 measured after 48 hrs relative to control
[14] = Inhibition of RTK/PI3K/AKT/mTOR signaling in human U87 cells assessed as down regulation of VTA1 gene expression at cytotoxic IC50 measured after 48 hrs relative to control
[15] = Inhibition of RTK/PI3K/AKT/mTOR signaling in human U87 cells assessed as up regulation of ceramide kinase gene expression at cytotoxic IC50 measured after 48 hrs relative to control
[16] = Inhibition of RTK/PI3K/AKT/mTOR signaling in human U87 cells assessed as up regulation of family with sequence similarity 171 member A1 gene expression at cytotoxic IC50 measured after 48 hrs relative to control
[17] = Inhibition of RTK/PI3K/AKT/mTOR signaling in human U87 cells assessed as down regulation of PELI1 gene expression at cytotoxic IC50 measured after 48 hrs relative to control
[18] = Inhibition of RTK/PI3K/AKT/mTOR signaling in human U87 cells assessed as up regulation of poly(A) RNA polymerase D7, non-canonical gene expression at cytotoxic IC50 measured after 48 hrs relative to control
[19] = Inhibition of RTK/PI3K/AKT/mTOR signaling in human U87 cells assessed as up regulation of BEST1 gene expression at cytotoxic IC50 measured after 48 hrs relative to control
[20] = Inhibition of RTK/PI3K/AKT/mTOR signaling in human U87 cells assessed as up regulation of adenylate cyclase 9 gene expression at cytotoxic IC50 measured after 48 hrs relative to control
[21] = Inhibition of RTK/PI3K/AKT/mTOR signaling in human U87 cells assessed as down regulation of TRAPPC10 gene expression at cytotoxic IC50 measured after 48 hrs relative to control
[22] = Inhibition of RTK/PI3K/AKT/mTOR signaling in human U87 cells assessed as up regulation of RCOR2 gene expression at cytotoxic IC50 measured after 48 hrs relative to control
[23] = Inhibition of RTK/PI3K/AKT/mTOR signaling in human U87 cells assessed as up regulation of tetratricopeptide repeat domain 17 gene expression at cytotoxic IC50 measured after 48 hrs relative to control
[24] = Inhibition of RTK/PI3K/AKT/mTOR signaling in human U87 cells assessed as down regulation of RNF139 gene expression at cytotoxic IC50 measured after 48 hrs relative to control
[25] = Inhibition of RTK/PI3K/AKT/mTOR signaling in human U87 cells assessed as down regulation of BIRC3 gene expression at cytotoxic IC50 measured after 48 hrs relative to control
[26] = Inhibition of RTK/PI3K/AKT/mTOR signaling in human U87 cells assessed as down regulation of MYBL2 gene expression at cytotoxic IC50 measured after 48 hrs relative to control
[27] = Inhibition of RTK/PI3K/AKT/mTOR signaling in human U87 cells assessed as down regulation of RNF219 gene expression at cytotoxic IC50 measured after 48 hrs relative to control
[28] = Inhibition of RTK/PI3K/AKT/mTOR signaling in human U87 cells assessed as down regulation of MCL1 gene expression at cytotoxic IC50 measured after 48 hrs relative to control
[29] = Inhibition of RTK/PI3K/AKT/mTOR signaling in human U87 cells assessed as up regulation of PITPNB gene expression at cytotoxic IC50 measured after 48 hrs relative to control
[30] = Inhibition of RTK/PI3K/AKT/mTOR signaling in human U87 cells assessed as down regulation of ERLIN2 gene expression at cytotoxic IC50 measured after 48 hrs relative to control
[31] = Inhibition of RTK/PI3K/AKT/mTOR signaling in human U87 cells assessed as up regulation of protein kinase, X-linked gene expression at cytotoxic IC50 measured after 48 hrs relative to control
[32] = Inhibition of RTK/PI3K/AKT/mTOR signaling in human U87 cells assessed as up regulation of protein disulfide isomerase family A member 3 gene expression at cytotoxic IC50 measured after 48 hrs relative to control

Question: With `CC(=O)C(=NNc1ccccc1C#N)C(C)=O` as the compound, how does the log2FC [1] read?
Answer: 1.11

Question: And the log2FC [2]?
Answer: 1.17

Question: What about the log2FC [3] of the same compound?
Answer: -0.717

Question: What about the log2FC [4] of the same compound?
Answer: -0.609

Question: And the log2FC [5]?
Answer: -0.708

Question: And the log2FC [6]?
Answer: -1.63

Question: And the log2FC [7]?
Answer: 0.768

Question: And the log2FC [8]?
Answer: 1.08

Question: What about the log2FC [9] of the same compound?
Answer: 0.762

Question: What about the log2FC [10] of the same compound?
Answer: -0.839

Question: What about the log2FC [11] of the same compound?
Answer: 1.32

Question: What about the log2FC [12] of the same compound?
Answer: -0.928

Question: And the log2FC [13]?
Answer: 0.389

Question: And the log2FC [14]?
Answer: -0.687

Question: And the log2FC [15]?
Answer: 1.18

Question: What about the log2FC [16] of the same compound?
Answer: 1.22

Question: And the log2FC [17]?
Answer: -1.43

Question: And the log2FC [18]?
Answer: 0.826

Question: And the log2FC [19]?
Answer: 1.66

Question: And the log2FC [20]?
Answer: 1.24

Question: And the log2FC [21]?
Answer: -0.675

Question: And the log2FC [22]?
Answer: 1.82

Question: What about the log2FC [23] of the same compound?
Answer: 0.701

Question: What about the log2FC [24] of the same compound?
Answer: -0.727

Question: And the log2FC [25]?
Answer: -1.65

Question: What about the log2FC [26] of the same compound?
Answer: -1.61

Question: And the log2FC [27]?
Answer: -1.23

Question: What about the log2FC [28] of the same compound?
Answer: -0.826

Question: What about the log2FC [29] of the same compound?
Answer: 0.468

Question: What about the log2FC [30] of the same compound?
Answer: -0.558

Question: And the log2FC [31]?
Answer: 1.04

Question: And the log2FC [32]?
Answer: 0.667
